Patent publication US20250283871A1, “COMPOSITIONS AND METHODS FOR MODULATING THE INTERACTION BETWEEN SS18-SSX FUSION ONCOPROTEIN AND NUCLEOSOMES” (Dana-Farber Cancer Institute, Inc., priority 2020, published 2025)

Tested on: BAF complex subunits and histone proteins
Experiment: Mass spectrometry proteomics of purified HA-SS18 WT and HA-SS18-SSX1 complexes (Tables 5A-5E)
Design: species or system human
Details: for Total (total peptides) / Unique (unique peptides): HA-SS18SSX1_CHR_peptides: protein identified in the HA-SS18-SSX1 purification from solubilized chromatin (CHR)
[1] = HA-SS18SSX1_NE_peptides: protein co-purified with HA-SS18-SSX1 BAF complexes from soluble nuclear extract (NE), HEK-293T cells
[2] = HA-SS18WT_CHR_peptides: HA-SS18 WT purification from nuclease-treated solubilized chromatin (CHR), HEK-293T, label = protein identified
[3] = HA-SS18WT_NE_peptides: proteins co-purified with HA-SS18 WT from nuclear extract (NE), HEK-293T

Molecule	Total (total peptides) (HEK-293T)	Unique (unique peptides) (HEK-293T)	Total (peptides) [1]	Unique (peptides) [1]	Total (peptides) [2]	Unique (peptides) [2]	Total (peptides) [3]	Unique (peptides) [3]
CDC5L (protein, UniProt Q99459 1-802, looked up) Cell division cycle 5-like …: MPRIMIKGGVWRNTEDEILKAAVMKYGKNQWSRIASLLHRKSAKQCKARWYEWLDPSIKKTEWSREEEEKLLHLAKLMPTQWRTIAPIIGRTAAQCLEHYEFLLDKAAQRDNEEETTDDPRKLKPGEIDPNPETKPARPDPIDMDEDELEMLSEARARLANTQGKKAKRKAREKQLEEARRLAALQKRRELRAAGIEIQKKRKRKRGVDYNAEIPFEKKPALGFYDTSEENYQALDADFRKLRQQDLDGELRSEKEGRDRKKDKQHLKRKKESDLPSAILQTSGVSEFTKKRSKLVLPAPQISDAELQEVVKVGQASEIARQTAEESGITNSASSTLLSEYNVTNNSVALRTPRTPASQDRILQEAQNLMALTNVDTPLKGGLNTPLHESDFSGVTPQRQVVQTPNTVLSTPFRTPSNGAEGLTPRSGTTPKPVINSTPGRTPLRDKLNINPEDGMADYSDPSYVKQMERESREHLRLGLLGLPAPKNDFEIVLPENAEKELEEREIDDTYIEDAADVDARKQAIRDAERVKEMKRMHKAVQKDLPRPSEVNETILRPLNVEPPLTDLQKSEELIKKEMITMLHYDLLHHPYEPSGNKKGKTVGFGTNNSEHITYLEHNPYEKFSKEELKKAQDVLVQEMEVVKQGMSHGELSSEAYNQVWEECYSQVLYLPGQSRYTRANLASKKDRIESLEKRLEINRGHMTTEAKRAAKMEKKMKILLGGYQSRAMGLMKQLNDLWDQIEQAHLELRTFEELKKHEDSAIPRRLECLKEDVQRQQEREKELQHRYADLLLEKETLKSKF	10	10	2	2	9	9		
WDR75 (protein, UniProt Q8IWA0 1-830, looked up) WD repeat-containing protein …: MVEEENIRVVRCGGSELNFRRAVFSADSKYIFCVSGDFVKVYSTVTEECVHILHGHRNLVTGIQLNPNNHLQLYSCSLDGTIKLWDYIDGILIKTFIVGCKLHALFTLAQAEDSVFVIVNKEKPDIFQLVSVKLPKSSSQEVEAKELSFVLDYINQSPKCIAFGNEGVYVAAVREFYLSVYFFKKKTTSRFTLSSSRNKKHAKNNFTCVACHPTEDCIASGHMDGKIRLWRNFYDDKKYTYTCLHWHHDMVMDLAFSVTGTSLLSGGRESVLVEWRDATEKNKEFLPRLGATIEHISVSPAGDLFCTSHSDNKIIIIHRNLEASAVIQGLVKDRSIFTGLMIDPRTKALVLNGKPGHLQFYSLQSDKQLYNLDIIQQEYINDYGLIQIELTKAAFGCFGNWLATVEQRQEKETELELQMKLWMYNKKTQGFILNTKINMPHEDCITALCFCNAEKSEQPTLVTASKDGYFKVWILTDDSDIYKKAVGWTCDFVGSYHKYQATNCCFSEDGSLLAVSFEEIVTIWDSVTWELKCTFCQRAGKIRHLCFGRLTCSKYLLGATENGILCCWNLLSCALEWNAKLNVRVMEPDPNSENIAAISQSSVGSDLFVFKPSEPRPLYIQKGISREKVQWGVFVPRDVPESFTSEAYQWLNRSQFYFLTKSQSLLTFSTKSPEEKLTPTSKQLLAEESLPTTPFYFILGKHRQQQDEKLNETLENELVQLPLTENIPAISELLHTPAHVLPSAAFLCSMFVNSLLLSKETKSAKEIPEDVDMEEEKESEDSDEENDFTEKVQDTSNTGLGEDIIHQLSKSEEKELRKFRKIDYSWIAAL	10	10			7	7		
ATAD2B (protein, UniProt Q9ULI0 1-1458, looked up) ATPase family AAA …: MVNTRKSSLRLLGSKSPGPGPGPGAGAEPGATGGSSHFISSRTRSSKTRAASCPAAKAGGSGGAGVTLDEARKVEVDGSLSDSHVSPPAKRTLKQPDSVCKDKSKSRSTGQREEWNLSTGQARLTSQPGATLPNGHSGLSLRSHPLRGEKKGDGDLSCINGDMEVRKSCRSRKNRFESVNQSLLFDQLVNSTAEAVLQEMDNINIRRNRRSGEVERLRMWTDTEFENMDMYSRVKRRRKSLRRNSYGIQNHHEVSTEGEEEESQEEDGDIEVEEAEGEENDRPYNLRQRKTVDRYQAPPIVPAHQKKRENTLFDIHRSPARRSHIRRKKHAIHSSDTTSSDEERFERRKSKSMARARNRCLPMNFRAEDLASGILRERVKVGASLADVDPMNIDKSVRFDSIGGLSHHIHALKEMVVFPLLYPEIFEKFKIQPPRGCLFYGPPGTGKTLVARALANECSQGDKKVAFFMRKGADCLSKWVGESERQLRLLFDQAYLMRPSIIFFDEIDGLAPVRSSRQDQIHSSIVSTLLALMDGLDNRGEIVVIGATNRLDSIDPALRRPGRFDREFLFNLPDQKARKHILQIHTRDWNPKLSDAFLGELAEKCVGYCGADIKALCTEAALIALRRRYPQIYASSHKLQLDVSSIVLSAQDFYHAMQNIVPASQRAVMSSGHALSPIIRPLLERSFNNILAVLQKVFPHAEISQSDKKEDIETLILEDSEDENALSIFETNCHSGSPKKQSSSAAIHKPYLHFTMSPYHQPTSYRPRLLLSGERGSGQTSHLAPALLHTLERFSVHRLDLPALYSVSAKTPEESCAQIFREARRTVPSIVYMPHIGDWWEAVSETVRATFLTLLQDIPSFSPIFLLSTSETMYSELPEEVKCIFRIQYEEVLYIQRPIEEDRRKFFQELILNQASMAPPRRKHAALCAMEVLPLALPSPPRQLSESEKSRMEDQEENTLRELRLFLRDVTKRLATDKRFNIFSKPVDIEEVSDYLEVIKEPMDLSTVITKIDKHNYLTAKDFLKDIDLICSNALEYNPDKDPGDKIIRHRACTLKDTAHAIIAAELDPEFNKLCEEIKEARIKRGLSVTSEQINPHSTGARKTETRVEEAFRHKQRNPMDVWHNSANKCAFRVRRKSRRRSQWGKGIIKKRKVNNLKKDEEDTKFADYENHTEDRKLLENGEFEVSTDCHEENGEETGDLSMTNDESSCDIMDLDQGQRLNNGAGTKENFASTEEESSNESLLVNSSSSLNPEQTSRKETFLKGNCLNGEASTDSFEGIPVLECQNGKLEVVSFCDSGDKCSSEQKILLEDQSKEKPETSTENHGDDLEKLEALECSNNEKLEPGSDVEVKDAELDKEGASKVKKYRKLILEQAKTTSLELVPEEPSEPVPPLIVDRERLKKLLDLLVDKSNNLAVDQLERLYSLLSQCIYRHRKDYDKSQLVEEMERTVHMFETFL	10	10			13	11		
DDX18 (protein, UniProt Q9NVP1 1-670, looked up) ATP-dependent RNA helicase …: MSHLPMKLLRKKIEKRNLKLRQRNLKFQGASNLTLSETQNGDVSEETMGSRKVKKSKQKPMNVGLSETQNGGMSQEAVGNIKVTKSPQKSTVLTNGEAAMQSSNSESKKKKKKKRKMVNDAEPDTKKAKTENKGKSEEESAETTKETENNVEKPDNDEDESEVPSLPLGLTGAFEDTSFASLCNLVNENTLKAIKEMGFTNMTEIQHKSIRPLLEGRDLLAAAKTGSGKTLAFLIPAVELIVKLRFMPRNGTGVLILSPTRELAMQTFGVLKELMTHHVHTYGLIMGGSNRSAEAQKLGNGINIIVATPGRLLDHMQNTPGFMYKNLQCLVIDEADRILDVGFEEELKQIIKLLPTRRQTMLFSATQTRKVEDLARISLKKEPLYVGVDDDKANATVDGLEQGYVVCPSEKRFLLLFTFLKKNRKKKLMVFFSSCMSVKYHYELLNYIDLPVLAIHGKQKQNKRTTTFFQFCNADSGTLLCTDVAARGLDIPEVDWIVQYDPPDDPKEYIHRVGRTARGLNGRGHALLILRPEELGFLRYLKQSKVPLSEFDFSWSKISDIQSQLEKLIEKNYFLHKSAQEAYKSYIRAYDSHSLKQIFNVNNLNLPQVALSFGFKVPPFVDLNVNSNEGKQKKRGGGGGFGYQKTKKVEKSKIFKHISKKSSDSRQFSH	10	10			9	9	2	2
ZMYM3 (protein, UniProt Q14202 1-1370, looked up) Zinc finger MYM-type protein 3: MDPSDFPSPFDPLTLPEKPLAGDLPVDMEFGEDLLESQTAPTRGWAPPGPSPSSGALDLLDTPAGLEKDPGVLDGATELLGLGGLLYKAPSPPEVDHGPEGTLAWDAGDQTLEPGPGGQTPEVVPPDPGAGANSCSPEGLLEPLAPDSPITLQSPHIEEEETTSIATARRGSPGQEEELPQGQPQSPNAPPSPSVGETLGDGINSSQTKPGGSSPPAHPSLPGDGLTAKASEKPPERKRSERVRRAEPPKPEVVDSTESIPVSDEDSDAMVDDPNDEDFVPFRPRRSPRMSLRSSVSQRAGRSAVGTKMTCAHCRTPLQKGQTAYQRKGLPQLFCSSSCLTTFSKKPSGKKTCTFCKKEIWNTKDSVVAQTGSGGSFHEFCTSVCLSLYEAQQQRPIPQSGDPADATRCSICQKTGEVLHEVSNGSVVHRLCSDSCFSKFRANKGLKTNCCDQCGAYIYTKTGSPGPELLFHEGQQKRFCNTTCLGAYKKKNTRVYPCVWCKTLCKNFEMLSHVDRNGKTSLFCSLCCTTSYKVKQAGLTGPPRPCSFCRRSLSDPCYYNKVDRTVYQFCSPSCWTKFQRTSPEGGIHLSCHYCHSLFSGKPEVLDWQDQVFQFCCRDCCEDFKRLRGVVSQCEHCRQEKLLHEKLRFSGVEKSFCSEGCVLLYKQDFTKKLGLCCITCTYCSQTCQRGVTEQLDGSTWDFCSEDCKSKYLLWYCKAARCHACKRQGKLLETIHWRGQIRHFCNQQCLLRFYSQQNQPNLDTQSGPESLLNSQSPESKPQTPSQTKVENSNTVRTPEENGNLGKIPVKTRSAPTAPTPPPPPPPATPRKNKAAMCKPLMQNRGVSCKVEMKSKGSQTEEWKPQVIVLPIPVPIFVPVPMHLYCQKVPVPFSMPIPVPVPMFLPTTLESTDKIVETIEELKVKIPSNPLEADILAMAEMIAEAEELDKASSDLCDLVSNQSAEGLLEDCDLFGPARDDVLAMAVKMANVLDEPGQDLEADFPKNPLDINPSVDFLFDCGLVGPEDVSTEQDLPRTMRKGQKRLVLSESCSRDSMSSQPSCTGLNYSYGVNAWKCWVQSKYANGETSKGDELRFGPKPMRIKEDILACSAAELNYGLAQFVREITRPNGERYEPDSIYYLCLGIQQYLLENNRMVNIFTDLYYLTFVQELNKSLSTWQPTLLPNNTVFSRVEEEHLWECKQLGVYSPFVLLNTLMFFNTKFFGLQTAEEHMQLSFTNVVRQSRKCTTPRGTTKVVSIRYYAPVRQRKGRDTGPGKRKREDEAPILEQRENRMNPLRCPVKFYEFYLSKCPESLRTRNDVFYLQPERSCIAESPLWYSVIPMDRSMLESMLNRILAVREIYEELGRPGEEDLD	10	9			6	6		
